# Experimental data taken from PubChem BioAssay AID2685 (National Center for Advancing Translational Sciences (NCATS), 2010).
# The list shows a part of the results. Shown are side measurements of this screen, not its main read-out; they come without a call. Compounds called inactive in the main read-out are mostly missing here. Potencies come from curve fits of mixed quality, noted in brackets.
# Assay: qHTS Assay for Lipid Storage Modulators in Drosophila S3 Cells;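 for cell number change: cells counted by Cell Tracker Red CMTPX staining in the red channel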
# Details: BODIPY lipid droplet fluorescence, 18-24 h; for cell number change: measured here: cell count max response, cells fed with added oleic acid
# In short: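 Laser-scanning cytometry quantifies lipid droplet accumulation (500–530 nm total intensity; droplet/cell object ratio) in oleic acid-fed (400 uM added) Drosophila S3 cells treated with a concentration series. 20 uM Triacsin C defined 100% inhibition.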
# [1] = measured here: lipid fluorescence (Fed channel) AC50, cells fed with added oleic acid
# [2] = measured here: cell number channel AC50, cells fed with added oleic acid
Compound,cell number change,AC50 [1],AC50 [2]
CN(CC(=O)Nc1ccc(N2CCOCC2)cc1)CC(=O)Nc1ccc(Cl)cc1[N+](=O)[O-],0.809%,"29.1 µM [rising, single point]",
Cc1cc(C)nc(SCCn2c(N3CC(C)OC(C)C3)nc3c2c(=O)n(C)c(=O)n3C)n1 (stereo not given),-21.8%,,"0.092 µM [falling, full curve, poor fit]"
COc1cc(NC(=S)Nc2cccnc2)cc(OC)c1,13.3%,"3.26 µM [rising, full curve, poor fit]",
COc1ccc(CN(C)c2nc(-c3cccnc3)nc3ccccc23)cc1OC,,,"0.092 µM [rising, full curve, poor fit]"
Nc1c(-c2cccc([N+](=O)[O-])c2)nc2ccccn12,-2.07%,"10.3 µM [rising, partial curve, poor fit]",
Cc1cc(C)cc(-n2ncc3c2CCCC3NC(=O)c2csnn2)c1 (stereo not given),-68.8%,"0.1 µM [falling, full curve]","0.1 µM [falling, full curve]"
O=C(Cc1noc2ccccc12)NNC(=S)Nc1ccc(Cl)cc1,12.7%,,
CN(Cc1ccccc1)S(=O)(=O)c1ccc(NC(=S)NC(=O)C(C)(C)C)cc1,146%,"2.59 µM [rising, full curve, poor fit]","18.4 µM [rising, single point]"
N#CC1=C(N)C(C#N)(C#N)[C@H](c2cccnc2)[C@H]2CN(C(=O)OCc3ccccc3)CC=C12,3.58%,,
CCOC(=O)C1C(=O)C=C(c2ccc([N+](=O)[O-])cc2)CC1c1ccccc1 (stereo not given),,"6.51 µM [rising, single point]",
COC(=O)c1ccccc1NC(=O)Cn1cc(Br)cn1,1.87%,"29.1 µM [rising, partial curve]",
O=C(CSc1nnc(NC(=O)c2c(F)cccc2F)s1)NCC1CCCO1 (stereo not given),-14.2%,"0.259 µM [falling, full curve, poor fit]","1.46 µM [falling, partial curve, poor fit]"
N#C/C(=C\c1c(F)cccc1Cl)S(=O)(=O)c1ccccn1,1.45%,"0.00461 µM [falling, full curve, poor fit]",
CC1CCc2ccccc2N1C(N)=Nc1ccccc1 (stereo not given),-52.4%,"0.92 µM [falling, full curve, poor fit]","1.03 µM [falling, full curve, poor fit]"
CCCCOc1ccc(N(CC(=O)NC(C)(C)CC)C(=O)CCC(=O)Nc2ccccn2)cc1,-5.11%,"0.461 µM [falling, full curve, poor fit]",
COc1cccc(OC)c1C(=O)OCC(=O)Nc1cccnc1Cl,,"0.411 µM [rising, full curve]","0.411 µM [rising, full curve]"
COc1ccc(NC(=O)c2ccc(S(=O)(=O)N(C)C)cc2)cc1OC,5.24%,,
Nc1ccc(S(=O)(=O)Nc2nccc(/C=C/c3ccc([N+](=O)[O-])cc3)n2)cc1,5.13%,"0.291 µM [rising, partial curve, poor fit]",
Cc1ccccc1CSc1nc2c(c(=O)[nH]1)CCCC2,,"29.1 µM [rising, single point]","4.11 µM [falling, single point]"
COc1ccccc1N1CCN(C2CCCN(C(=O)c3snnc3C)C2)CC1 (stereo not given),5.9%,"4.11 µM [rising, full curve]",

# Taken from above.
# `N#C/C(=C\c1c(F)cccc1Cl)S(=O)(=O)c1ccccn1` | AC50 [1]: 0.00461 µM [falling, full curve, poor fit]
# `COc1cccc(OC)c1C(=O)OCC(=O)Nc1cccnc1Cl` | AC50 [1]: 0.411 µM [rising, full curve]
# `CC1CCc2ccccc2N1C(N)=Nc1ccccc1` (stereo not given) | AC50 [1]: 0.92 µM [falling, full curve, poor fit]
# `COC(=O)c1ccccc1NC(=O)Cn1cc(Br)cn1` | AC50 [1]: 29.1 µM [rising, partial curve]
# `COc1ccccc1N1CCN(C2CCCN(C(=O)c3snnc3C)C2)CC1` (stereo not given) | cell number change: 5.9%

# Continuation.

Compound,cell number change,AC50 [1],AC50 [2]
COc1ccc(CCn2c(=N)c(S(=O)(=O)c3ccccc3)cc3c(=O)n4ccccc4nc32)cc1,8.36%,"6.51 µM [falling, single point]",
COc1ccccc1N1CCN(C(=O)c2cc(-c3ccc(F)cc3)on2)CC1,7.21%,,
Cc1cc(Br)ccc1NC(=O)CN(C)C(=O)Cn1c(=O)cnc2ccccc21,14.6%,"0.517 µM [rising, single point]",
CS(=O)(=O)c1ccccc1C(=O)N1CCN(Cc2ccccc2)CC1,22.2%,"29.1 µM [rising, single point]",
Nc1nonc1-n1nnc(C(=O)O)c1-c1cccs1,-181%,"4.11 µM [falling, full curve]","6.51 µM [falling, full curve]"
CCc1cc2c(=O)n(-c3ccccc3)c(SCC(N)=O)nc2s1,-18.6%,"3.66 µM [falling, full curve, poor fit]",
CCOC(=O)c1ccc(NC(=O)CSc2nc(=O)n3cccc(C)c3n2)cc1,,,"0.58 µM [rising, full curve]"
N#Cc1c2c(c(-c3ccccc3)[nH]c1=O)CCCC2,-13.3%,"4.61 µM [falling, full curve, poor fit]",
CCC1(c2ccccc2)NC(=O)N(CC(=O)NCC2COc3ccccc3O2)C1=O (stereo not given),-25.7%,,
O=S(=O)(N1CCOCC1)N1CCN(c2ccccc2F)CC1,,,"3.26 µM [falling, partial curve]"
O=C(NNC(=S)NC(=O)c1ccccc1[N+](=O)[O-])c1ccccc1[N+](=O)[O-],-3.38%,"0.116 µM [falling, full curve, poor fit]","1.64 µM [falling, partial curve, poor fit]"
O=C(CN1CCN(CC(=O)Nc2ccccc2F)CC1)Nc1cccc(F)c1,45.8%,,"29.1 µM [rising, single point]"
COc1cc(-c2noc(CCC(N)=O)n2)cc(OC)c1OC,-16.5%,,
CCOc1cc2c3c(c1)C1(C(=O)N3C(C)(C)C=C2C)C(C#N)=C(N)Oc2cc(O)ccc21 (stereo not given),-65.2%,"29.1 µM [falling, single point]","29.1 µM [falling, single point]"
COCCCN(CC(=O)Nc1ccc(N2CCOCC2)cc1)S(=O)(=O)c1ccc(Cl)cc1,69.6%,,"29.1 µM [rising, single point]"
CCN1C(=O)c2cccc3c(S(=O)(=O)NCC4CCCO4)ccc1c23 (stereo not given),16.8%,"29.1 µM [rising, single point]",
CCCCCCSc1ccc([C@H]2N[C@@](C)(C(=O)OC)[C@H]3C(=O)N(C)C(=O)[C@@H]23)cc1,,"0.0082 µM [falling, full curve, poor fit]",
Cc1ccc(S(=O)(=O)CCC(=O)c2cccc([N+](=O)[O-])c2)cc1,-73.9%,,"11.2 µM [falling, partial curve]"
Nc1cc(Cl)c(N)cc1Cl,2.29%,"1.64 µM [falling, full curve]",
O=C(O)CC(NC(=O)OCc1ccccc1)c1ccc(Br)cc1 (stereo not given),-17%,"0.116 µM [falling, full curve, poor fit]",

Compound,cell number change,AC50 [1],AC50 [2]
CC(=O)Nc1cccc(NC(=O)c2cccc(-c3ccc(O)cc3)c2)c1,-8.55%,,
COc1ccc(-c2nsc(SCC(=O)Nc3ccc4c(c3)OCO4)n2)cc1,23.3%,,
Cc1ccccc1C(=O)NNc1ccc([N+](=O)[O-])cc1,0.972%,"7.31 µM [falling, partial curve]",
CCOc1ccc(S(=O)(=O)NCCC(=O)OCC(=O)N2CC(=O)Nc3ccccc32)cc1,12.3%,,
CC1=NN(C(C#N)c2ccccc2)C(c2ccccc2)C1 (stereo not given),23.8%,"29.1 µM [rising, single point]",
Cc1ccc(CNc2ccc(N3C(=O)CCCC3=O)cc2[N+](=O)[O-])cc1,2.89%,"14.6 µM [rising, single point]",
Cc1ccc(S(=O)(=O)N2CCC(C(=O)NCCc3ccc(S(N)(=O)=O)cc3)CC2)cc1,-31%,"3.66 µM [falling, full curve]","3.66 µM [falling, full curve]"
O=C(NNS(=O)(=O)c1ccccc1F)c1cccc(S(=O)(=O)N2CCOCC2)c1,45%,"0.116 µM [falling, full curve, poor fit]","16.4 µM [rising, single point]"
COc1ccc(C(=O)OCC(N)=O)cc1[N+](=O)[O-],,"0.58 µM [rising, partial curve, poor fit]",
S=C(NCc1ccccc1)Nc1ccc2ccccc2c1,5.49%,,
O=C(CN1CCN(c2cccc(Cl)c2)CC1)c1ccc(O)cc1O,-17%,"29.1 µM [falling, single point]",
CC(=O)N1CCN(S(=O)(=O)c2cccc(C(=O)NC3CC3)c2)CC1,-8.96%,,"0.411 µM [falling, full curve, poor fit]"
CN(CCCNC(=O)c1nn(C)c2c1CS(=O)(=O)c1ccccc1-2)Cc1ccccc1,17.9%,,
NC(=O)C1(N2CCCCC2)CCN(Cc2nc3ccccc3c(=O)[nH]2)CC1,37%,,"20.6 µM [rising, single point]"
O=C(O)c1c(-c2ccc(Cl)cc2)cn2ccccc12,,"3.26 µM [falling, partial curve, poor fit]",
CC(=O)Nc1ccc(Oc2cc(C#N)c(C#N)cc2N2CCCCCC2)cc1,-6.44%,"13 µM [falling, single point]",
O=C(O)C1SCCN1S(=O)(=O)c1ccc(N=NN2CCOCC2)cc1 (stereo not given),-13.2%,"14.6 µM [falling, single point]",
O=C1Cc2ccccc2Sc2ccc(O)cc21,-30.6%,"0.82 µM [falling, full curve, poor fit]","0.164 µM [falling, full curve]"
COc1ccc(NC(=O)C(Cl)=C(Cl)Cl)cn1,-5.22%,"0.0231 µM [falling, full curve, poor fit]",
